Reference: publication PMC8298100
Results are given in words; binding and its absence hold for the method and conditions named. In cells and extracts the contact can be indirect. Sequences can lack the tags named with a protein.

Tests used:
Assay in all cases: co-IP; FLAG-TPD52, FLAG-TPD53 or FLAG-TPD54 coexpressed in HeLa with GFP-FKBP constructs; lysis in 10 mM Tris pH 7.5, 150 mM NaCl, 0.5 mM EDTA, 1% Triton X-100; anti-FLAG M2 magnetic beads 2 h at 4°C; Western blot with anti-GFP
FLAG-TPD52 (human) = biological target: T1, FLAG-TPD52 (human) (UniProt P55327)
T1 sequence: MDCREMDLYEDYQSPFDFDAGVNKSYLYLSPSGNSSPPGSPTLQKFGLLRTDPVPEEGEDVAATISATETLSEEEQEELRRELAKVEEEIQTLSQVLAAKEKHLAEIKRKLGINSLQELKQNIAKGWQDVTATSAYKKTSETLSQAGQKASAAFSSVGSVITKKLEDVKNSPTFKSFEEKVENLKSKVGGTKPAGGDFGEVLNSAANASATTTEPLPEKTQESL

FLAG-TPD53 (human) = biological target: T2, FLAG-TPD53 (human) (UniProt Q16890)
T2 sequence: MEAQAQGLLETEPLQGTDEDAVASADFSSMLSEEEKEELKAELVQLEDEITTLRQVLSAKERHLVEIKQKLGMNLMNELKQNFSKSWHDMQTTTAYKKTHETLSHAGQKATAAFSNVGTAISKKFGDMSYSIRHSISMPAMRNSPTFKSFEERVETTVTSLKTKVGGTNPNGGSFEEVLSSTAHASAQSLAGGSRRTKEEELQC

FLAG-TPD54 (human) = FLAG-TPD54 (human) (UniProt O43399)

Measured: binding

B1: GFP-FKBP-TPD54(L53P,L67P) (protein, UniProt O43399-1 1-206)
chain: MDSAGQDINLNSPNKGLLSDSMTDVPVDTGVAARTPAVEGLTEAEEEELRAEPTKVEEEIVTLRQVPAAKERHCGELKRRLGLSTLGELKQNLSRSWHDVQVSSAYVKTSEKLGEWNEKVTQSDLYKKTQETLSQAGQKTSAALSTVGSAISRKLGDMRNSATFKSFEDRVGTIKSKVVGDRENGSDNLPSSAGSGDKPLSDPAPF
no binding: FLAG-TPD52 (human) | FLAG-TPD53 (human) | FLAG-TPD54 (human)
